Data on 16 compounds can be found in the odorant receptor screen of Mainland et al. (2015).

Among the test systems are OR4F15 clone 1074; OR4F15 clone 1434; OR4F16 clone 1060; OR4F17 clone 1161; OR4F21 clone 1580; OR4F4 clone 1556; OR4F5 clone 1557; OR4F6 clone 1058; OR4F6 clone 1537; OR4K1 R89H clone 1269.
Assay in all cases: odorant receptor activation (CRE luciferase / Renilla) (fold of no-odor wells); higher = more activation
Conditions in all cases: 100 µM

Values joined by “and” are separate entries in the source; they are usually repeats but may differ in a detail not shown here. Equal values may be shown once. The list shows a part of the results. Each value is one well over the wells without odorant, computed here; the data are noisy.

Take `COc1cc(C=O)ccc1O` [vanillin]: the odorant receptor activation with OR4F15 clone 1074 was found to be 0.984; in the assay with OR4F15 clone 1434, 0.939; with OR4F16 clone 1060 it was 1.19; in the assay with OR4F17 clone 1161 it was 1.03; in the assay with OR4F21 clone 1580, 1.38; with OR4F4 clone 1556 it was 0.909. Besides, the odorant receptor activation in the assay on OR4F5 clone 1557 came out at 1.25; in the assay with OR4F6 clone 1058, 0.94; with OR4F6 clone 1537, 0.922; in the assay with OR4K1 R89H clone 1269, 0.87.

Take `CCCCCCCC=O` [octyl aldehyde]: the odorant receptor activation in the assay on OR4F15 clone 1074 came out at 1.18; with OR4F15 clone 1434 it was 0.823; in the assay on OR4F16 clone 1060 it was 1.89; with OR4F17 clone 1161 it was 1.25; in the assay with OR4F21 clone 1580, 0.99; in the assay on OR4F4 clone 1556, 0.904. Also, the odorant receptor activation in the assay on OR4F5 clone 1557 is 0.957; in the assay with OR4F6 clone 1058, 1.12; in the assay with OR4F6 clone 1537 it was 0.892; in the assay on OR4K1 R89H clone 1269, 0.978.

Consider `CCCC(=O)O` [butyric acid], for which the odorant receptor activation in the assay on OR4F15 clone 1074 amounted to 1.23; with OR4F15 clone 1434 it was 0.213; in the assay on OR4F16 clone 1060, 1.18; in the assay with OR4F17 clone 1161 it was 1.04; in the assay on OR4F21 clone 1580, 1.57; with OR4F4 clone 1556, 1.07. In addition, the odorant receptor activation with OR4F5 clone 1557 stood at 1.03; with OR4F6 clone 1058 it was 1.19; with OR4F6 clone 1537 it was 1.13; in the assay with OR4K1 R89H clone 1269 it was 1.14.

As for `CC=Cc1ccc(O)c(OC)c1` [isoeugenol], the odorant receptor activation with OR4F15 clone 1074 was determined as 2.93; in the assay on OR4F15 clone 1434, 1.34; in the assay on OR4F16 clone 1060, 0.619; in the assay on OR4F17 clone 1161 it was 1.37; with OR4F21 clone 1580, 3.14; in the assay on OR4F4 clone 1556, 0.911. Besides, the odorant receptor activation with OR4F5 clone 1557 was 1; in the assay on OR4F6 clone 1058 it was 1.36; in the assay with OR4F6 clone 1537 it was 1.03 and 1.92; with OR4K1 R89H clone 1269, 1.02 and 1.49.

Consider `C=CC(C)(O)CCC=C(C)C` (centres undefined) [linalool], for which the odorant receptor activation was found to be 1.07 in the assay on OR4F15 clone 1074; 1.1 in the assay on OR4F15 clone 1434; 1.42 in the assay on OR4F16 clone 1060; 0.863 with OR4F17 clone 1161; 0.675 in the assay on OR4F21 clone 1580; 1.1 with OR4F4 clone 1556. The odorant receptor activation was 1.06 in the assay on OR4F5 clone 1557, 1.32 with OR4F6 clone 1058, 0.926 with OR4F6 clone 1537 and 0.954 with OR4K1 R89H clone 1269.

On to `CCCCCC(C)=O` [2-heptanone], for which the odorant receptor activation with OR4F15 clone 1074 was 0.611; in the assay on OR4F15 clone 1434 it was 0.83; in the assay with OR4F16 clone 1060, 1.17; in the assay with OR4F17 clone 1161 it was 1.12; with OR4F6 clone 1058, 1.54; with OR4F6 clone 1537, 0.71 and 0.624. Besides, the odorant receptor activation in the assay on OR4K1 R89H clone 1269 worked out at 1.19.

Regarding `CC(C)(O)CCCC1=CCC(C=O)CC1` (centres undefined) [lyral], the odorant receptor activation in the assay on OR4F21 clone 1580 is 1.01; with OR4F4 clone 1556, 2.92; in the assay with OR4F5 clone 1557 it was 1.27.

For `COC(=O)c1ccccc1` [methyl benzoate], the odorant receptor activation was 1.12 in the assay on OR4F15 clone 1074; 0.696 with OR4F15 clone 1434; 0.718 in the assay with OR4F16 clone 1060; 1.41 with OR4F17 clone 1161; 1.71 in the assay with OR4F6 clone 1058; 0.828 and 1.02 in the assay on OR4F6 clone 1537. This compound gave an odorant receptor activation in the assay on OR4K1 R89H clone 1269 of 0.811.

Take `CCC1(O)C2(C)CCC(C2)C1(C)C` (centres undefined) [2-ethylfenchol]: the odorant receptor activation in the assay on OR4F15 clone 1074 was determined as 3.21; in the assay with OR4F15 clone 1434 it was 1.57; in the assay on OR4F16 clone 1060 it was 3.2; with OR4F17 clone 1161 it was 1.01; in the assay with OR4F21 clone 1580 it was 0.689; in the assay on OR4F4 clone 1556, 1.36. Also, the odorant receptor activation in the assay with OR4F5 clone 1557 is 1.14; with OR4F6 clone 1058, 4.05; in the assay on OR4F6 clone 1537 it was 1.39; with OR4K1 R89H clone 1269 it was 1.19.

For the compound `CC1=NC(C)SC1C` (centres undefined), the odorant receptor activation with OR4F15 clone 1074 is 0.564; in the assay on OR4F15 clone 1434, 0.987; in the assay on OR4F16 clone 1060, 0.881; in the assay on OR4F17 clone 1161, 0.862; in the assay with OR4F6 clone 1058 it was 0.817; in the assay with OR4F6 clone 1537, 0.67 and 0.963. This compound had an odorant receptor activation in the assay with OR4K1 R89H clone 1269 of 4.23.

As to `O=C1CCCCC1` [Cyclohexanone], the odorant receptor activation in the assay on OR4F15 clone 1074 was 1.73; with OR4F15 clone 1434 it was 1.02; in the assay with OR4F16 clone 1060, 0.81; with OR4F17 clone 1161, 0.721; with OR4F6 clone 1058 it was 0.388; with OR4F6 clone 1537, 0.589 and 0.801. For the same compound, the odorant receptor activation in the assay with OR4K1 R89H clone 1269 was found to be 0.624.

Turning to `CCCCCCC=O` [heptaldehyde], the odorant receptor activation with OR4F15 clone 1074 is 0.788 and 1.87; in the assay on OR4F15 clone 1434, 0.975 and 0.817; in the assay on OR4F16 clone 1060, 0.843 and 0.705; with OR4F17 clone 1161 it was 0.471 and 0.858; in the assay on OR4F21 clone 1580 it was 0.775; with OR4F4 clone 1556, 0.747. Besides, the odorant receptor activation was 0.806 in the assay on OR4F5 clone 1557; 1.68 and 2.07 in the assay with OR4F6 clone 1058; 0.683 and 0.997 and 0.76 in the assay with OR4K1 R89H clone 1269.

Take `CC12CCC(CC1)C(C)(C)O2` [cineole]: the odorant receptor activation with OR4F15 clone 1074 was 0.969; in the assay on OR4F15 clone 1434, 0.182; with OR4F16 clone 1060, 0.823; in the assay on OR4F17 clone 1161, 0.751; in the assay on OR4F21 clone 1580 it was 0.957; with OR4F4 clone 1556 it was 0.875. The odorant receptor activation with OR4F5 clone 1557 was determined as 0.871; with OR4F6 clone 1058, 0.938; with OR4F6 clone 1537, 0.88; with OR4K1 R89H clone 1269 it was 1.31.

As to `CC(=O)c1ccccc1` [acetophenone], the odorant receptor activation was 0.917 with OR4F15 clone 1074; 1.06 with OR4F15 clone 1434; 0.587 in the assay with OR4F16 clone 1060; 1.39 in the assay with OR4F17 clone 1161; 1.26 in the assay on OR4F6 clone 1058; 1.12 and 0.989 with OR4F6 clone 1537. This compound also returned an odorant receptor activation in the assay on OR4K1 R89H clone 1269 of 1.67.

With `CC1CCC(C(C)C)C(O)C1` (single isomer, unassigned; (+)) [(+)-menthol], the odorant receptor activation in the assay with OR4F15 clone 1074 worked out at 3.57; in the assay with OR4F15 clone 1434, 1.33; in the assay on OR4F16 clone 1060, 4; in the assay on OR4F17 clone 1161, 1.25; with OR4F21 clone 1580 it was 0.861; with OR4F4 clone 1556, 1.32. Moreover, the odorant receptor activation was found to be 1.56 with OR4F5 clone 1557, 3.2 with OR4F6 clone 1058, 1.17 in the assay with OR4F6 clone 1537 and 1.09 in the assay with OR4K1 R89H clone 1269.

For `CC(C)(C)c1ccc(CCC=O)cc1` [bourgeonal], the odorant receptor activation was found to be 0.881 in the assay on OR4F15 clone 1074; 0.169 in the assay on OR4F15 clone 1434; 0.737 in the assay on OR4F16 clone 1060; 0.884 in the assay on OR4F17 clone 1161; 0.783 with OR4F6 clone 1058; 0.847 in the assay with OR4F6 clone 1537. In the assay with OR4K1 R89H clone 1269, this compound registered an odorant receptor activation of 0.934.
